# PMC4055580, “Simplagrin, a Platelet Aggregation Inhibitor from Simulium nigrimanum Salivary Glands Specifically Binds to the Von Willebrand Factor Receptor in Collagen and Inhibits Carotid Thrombus Formation In Vivo” (PLoS Neglected Tropical Diseases, 2014)
# Sequences of proteins named here, by UniProt entry; tags and fusion partners are left off. A change or cut given only in a name is not applied to a line headed by its entry. Residues count along the entry.
# UniProt P02461, residues 154-1221: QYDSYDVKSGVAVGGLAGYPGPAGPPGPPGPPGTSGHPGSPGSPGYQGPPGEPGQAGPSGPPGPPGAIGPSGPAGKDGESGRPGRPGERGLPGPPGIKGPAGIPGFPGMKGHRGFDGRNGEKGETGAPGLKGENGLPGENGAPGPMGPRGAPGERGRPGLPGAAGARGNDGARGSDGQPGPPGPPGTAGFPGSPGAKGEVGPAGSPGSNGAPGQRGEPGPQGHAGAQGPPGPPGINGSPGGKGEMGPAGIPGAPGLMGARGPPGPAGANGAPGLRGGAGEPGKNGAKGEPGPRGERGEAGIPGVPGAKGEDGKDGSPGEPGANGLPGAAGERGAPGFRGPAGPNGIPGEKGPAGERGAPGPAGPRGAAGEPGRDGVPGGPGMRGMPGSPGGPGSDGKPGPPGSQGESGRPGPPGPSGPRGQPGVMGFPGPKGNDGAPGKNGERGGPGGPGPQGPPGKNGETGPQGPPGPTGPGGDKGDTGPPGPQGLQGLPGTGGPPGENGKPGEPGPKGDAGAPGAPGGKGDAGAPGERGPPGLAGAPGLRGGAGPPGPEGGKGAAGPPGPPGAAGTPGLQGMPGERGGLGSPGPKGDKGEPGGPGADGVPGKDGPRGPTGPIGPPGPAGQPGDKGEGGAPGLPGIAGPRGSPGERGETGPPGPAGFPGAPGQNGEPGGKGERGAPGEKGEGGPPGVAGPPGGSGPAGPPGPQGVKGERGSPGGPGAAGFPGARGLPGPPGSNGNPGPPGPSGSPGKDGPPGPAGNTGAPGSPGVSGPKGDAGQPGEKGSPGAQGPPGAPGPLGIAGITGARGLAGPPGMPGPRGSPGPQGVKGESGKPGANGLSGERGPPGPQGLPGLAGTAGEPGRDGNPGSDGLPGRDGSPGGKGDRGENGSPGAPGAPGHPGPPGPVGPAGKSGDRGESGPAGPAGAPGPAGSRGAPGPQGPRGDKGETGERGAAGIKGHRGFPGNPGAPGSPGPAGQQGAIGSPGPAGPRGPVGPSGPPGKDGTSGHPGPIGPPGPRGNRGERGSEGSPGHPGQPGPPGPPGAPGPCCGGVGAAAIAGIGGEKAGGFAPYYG
# UniProt P04275, residues 764-2813: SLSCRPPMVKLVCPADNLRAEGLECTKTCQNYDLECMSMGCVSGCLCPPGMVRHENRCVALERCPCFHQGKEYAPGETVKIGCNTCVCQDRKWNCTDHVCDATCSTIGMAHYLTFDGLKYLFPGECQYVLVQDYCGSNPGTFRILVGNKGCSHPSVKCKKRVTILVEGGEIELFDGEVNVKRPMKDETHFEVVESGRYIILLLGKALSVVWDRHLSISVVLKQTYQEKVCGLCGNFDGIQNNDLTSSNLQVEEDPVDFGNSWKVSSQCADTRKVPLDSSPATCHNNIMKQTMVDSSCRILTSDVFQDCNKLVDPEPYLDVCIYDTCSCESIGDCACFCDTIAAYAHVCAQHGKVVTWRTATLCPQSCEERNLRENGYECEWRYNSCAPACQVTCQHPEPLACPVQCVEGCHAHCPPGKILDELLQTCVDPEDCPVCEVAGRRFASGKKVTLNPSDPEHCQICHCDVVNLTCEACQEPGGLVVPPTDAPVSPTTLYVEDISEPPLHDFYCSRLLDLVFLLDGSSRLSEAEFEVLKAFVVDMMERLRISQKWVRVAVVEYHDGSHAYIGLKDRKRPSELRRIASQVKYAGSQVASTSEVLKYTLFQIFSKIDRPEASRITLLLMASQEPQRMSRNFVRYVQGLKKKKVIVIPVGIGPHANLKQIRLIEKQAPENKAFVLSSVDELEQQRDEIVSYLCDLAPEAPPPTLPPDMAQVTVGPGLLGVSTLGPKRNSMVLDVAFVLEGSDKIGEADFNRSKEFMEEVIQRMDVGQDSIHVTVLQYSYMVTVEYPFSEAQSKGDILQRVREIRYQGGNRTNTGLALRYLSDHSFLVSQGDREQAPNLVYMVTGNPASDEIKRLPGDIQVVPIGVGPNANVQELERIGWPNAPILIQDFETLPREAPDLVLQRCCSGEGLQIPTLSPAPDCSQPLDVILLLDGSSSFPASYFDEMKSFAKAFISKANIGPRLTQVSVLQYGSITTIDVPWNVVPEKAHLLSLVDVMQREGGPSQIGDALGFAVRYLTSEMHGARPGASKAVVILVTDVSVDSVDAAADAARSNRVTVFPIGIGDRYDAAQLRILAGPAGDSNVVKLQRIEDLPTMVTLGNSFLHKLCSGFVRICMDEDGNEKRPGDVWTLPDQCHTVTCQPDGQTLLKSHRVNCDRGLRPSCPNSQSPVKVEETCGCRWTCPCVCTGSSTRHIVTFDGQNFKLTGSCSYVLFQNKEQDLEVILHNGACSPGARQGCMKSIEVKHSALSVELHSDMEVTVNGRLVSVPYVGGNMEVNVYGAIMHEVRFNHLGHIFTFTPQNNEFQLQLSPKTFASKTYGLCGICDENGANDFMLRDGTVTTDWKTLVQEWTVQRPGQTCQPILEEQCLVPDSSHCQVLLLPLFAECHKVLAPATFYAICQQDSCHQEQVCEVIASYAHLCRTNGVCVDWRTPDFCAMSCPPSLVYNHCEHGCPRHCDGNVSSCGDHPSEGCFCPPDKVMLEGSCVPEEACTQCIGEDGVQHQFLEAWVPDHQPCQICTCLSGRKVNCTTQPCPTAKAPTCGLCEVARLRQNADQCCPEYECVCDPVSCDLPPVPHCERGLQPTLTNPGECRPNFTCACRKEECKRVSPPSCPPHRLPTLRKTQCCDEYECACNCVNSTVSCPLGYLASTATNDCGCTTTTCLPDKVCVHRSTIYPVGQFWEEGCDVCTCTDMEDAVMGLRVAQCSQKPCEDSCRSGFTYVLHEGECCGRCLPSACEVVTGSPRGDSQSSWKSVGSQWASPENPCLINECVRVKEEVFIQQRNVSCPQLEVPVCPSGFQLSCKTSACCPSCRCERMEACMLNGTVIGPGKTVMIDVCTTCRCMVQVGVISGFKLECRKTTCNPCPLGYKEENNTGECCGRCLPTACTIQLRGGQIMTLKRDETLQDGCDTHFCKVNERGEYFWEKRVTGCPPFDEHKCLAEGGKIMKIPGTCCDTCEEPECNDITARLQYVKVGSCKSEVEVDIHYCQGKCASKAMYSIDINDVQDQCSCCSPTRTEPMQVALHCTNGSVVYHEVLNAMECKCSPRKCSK
# UniProt P02452: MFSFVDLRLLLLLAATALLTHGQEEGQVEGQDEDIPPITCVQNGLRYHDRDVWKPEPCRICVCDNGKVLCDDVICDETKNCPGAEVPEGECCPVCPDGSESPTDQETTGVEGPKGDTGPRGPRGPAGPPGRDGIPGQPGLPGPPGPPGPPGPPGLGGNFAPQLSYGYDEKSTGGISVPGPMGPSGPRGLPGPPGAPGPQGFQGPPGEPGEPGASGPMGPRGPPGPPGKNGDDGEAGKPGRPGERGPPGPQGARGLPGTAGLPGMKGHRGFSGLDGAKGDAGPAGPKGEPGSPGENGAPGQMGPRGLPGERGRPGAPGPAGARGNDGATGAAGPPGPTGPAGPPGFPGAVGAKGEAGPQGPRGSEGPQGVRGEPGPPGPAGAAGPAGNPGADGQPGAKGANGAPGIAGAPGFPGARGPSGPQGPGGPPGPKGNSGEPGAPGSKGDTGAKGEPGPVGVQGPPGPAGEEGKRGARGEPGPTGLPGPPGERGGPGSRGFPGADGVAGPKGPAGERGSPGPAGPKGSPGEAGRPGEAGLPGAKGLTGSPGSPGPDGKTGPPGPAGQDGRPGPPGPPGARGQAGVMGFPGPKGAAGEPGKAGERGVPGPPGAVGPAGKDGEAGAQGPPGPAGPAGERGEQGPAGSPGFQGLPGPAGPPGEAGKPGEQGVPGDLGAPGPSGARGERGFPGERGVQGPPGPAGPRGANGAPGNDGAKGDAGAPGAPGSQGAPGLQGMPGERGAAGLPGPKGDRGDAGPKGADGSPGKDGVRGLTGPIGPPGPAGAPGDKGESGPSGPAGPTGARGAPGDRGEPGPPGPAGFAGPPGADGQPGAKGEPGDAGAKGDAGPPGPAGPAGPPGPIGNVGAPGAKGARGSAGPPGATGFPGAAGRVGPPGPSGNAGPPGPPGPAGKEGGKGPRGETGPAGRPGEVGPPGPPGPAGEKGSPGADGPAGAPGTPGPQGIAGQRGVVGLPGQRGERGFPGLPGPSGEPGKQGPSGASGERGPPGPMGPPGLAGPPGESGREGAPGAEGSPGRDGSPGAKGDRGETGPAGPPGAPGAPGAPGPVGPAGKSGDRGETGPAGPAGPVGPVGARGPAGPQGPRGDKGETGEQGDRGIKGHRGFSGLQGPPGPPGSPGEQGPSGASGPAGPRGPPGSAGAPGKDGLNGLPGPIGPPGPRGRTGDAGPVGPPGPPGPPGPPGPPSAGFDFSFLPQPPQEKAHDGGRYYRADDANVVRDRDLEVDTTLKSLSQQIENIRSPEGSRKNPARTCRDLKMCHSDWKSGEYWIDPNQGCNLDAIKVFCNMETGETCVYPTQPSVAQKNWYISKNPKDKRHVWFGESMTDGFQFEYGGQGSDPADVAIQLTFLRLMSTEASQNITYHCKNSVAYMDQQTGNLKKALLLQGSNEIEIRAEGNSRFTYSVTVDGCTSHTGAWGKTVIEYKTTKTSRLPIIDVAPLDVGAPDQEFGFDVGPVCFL
# UniProt P04004, residues 20-478: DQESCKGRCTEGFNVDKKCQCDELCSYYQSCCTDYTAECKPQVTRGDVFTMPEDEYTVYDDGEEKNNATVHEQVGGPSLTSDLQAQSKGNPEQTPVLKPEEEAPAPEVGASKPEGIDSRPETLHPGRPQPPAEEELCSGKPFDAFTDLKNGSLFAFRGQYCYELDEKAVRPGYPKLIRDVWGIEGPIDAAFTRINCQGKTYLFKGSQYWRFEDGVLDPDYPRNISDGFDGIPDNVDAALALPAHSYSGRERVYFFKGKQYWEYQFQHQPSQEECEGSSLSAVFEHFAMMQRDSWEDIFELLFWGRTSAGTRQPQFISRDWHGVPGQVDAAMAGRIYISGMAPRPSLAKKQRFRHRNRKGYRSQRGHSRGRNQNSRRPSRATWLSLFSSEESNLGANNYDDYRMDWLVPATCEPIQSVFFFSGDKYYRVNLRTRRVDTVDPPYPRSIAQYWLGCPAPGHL
# These are yes or no findings as the source states them, for the method shown. Some entries that bind do so weakly or less than the wild type.
# Tests used:
# [1] = molecular target: T1, Simplagrin (Simulium platelet aggregation inhibitor), recombinant (Simulium nigrimanum) (UniProt D1FQ14); assay: SPR; initial screening: Simplagrin immobilised on a CM5 chip, analytes injected for 120 s at 20 µL/min, dissociation 400 s; HBS-P (10 mM Hepes pH 7.4, 150 mM NaCl, 0.005% P20); both purified
# T1 sequence: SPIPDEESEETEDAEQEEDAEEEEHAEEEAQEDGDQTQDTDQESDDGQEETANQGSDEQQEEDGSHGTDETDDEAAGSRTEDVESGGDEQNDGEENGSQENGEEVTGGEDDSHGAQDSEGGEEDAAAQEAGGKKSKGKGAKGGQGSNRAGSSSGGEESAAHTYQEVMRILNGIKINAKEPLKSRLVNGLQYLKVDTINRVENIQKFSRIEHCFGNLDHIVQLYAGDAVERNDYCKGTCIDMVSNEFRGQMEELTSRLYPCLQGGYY
# [2] = molecular target: T1, Simplagrin (Simulium platelet aggregation inhibitor), recombinant (Simulium nigrimanum); assay: SPR; Simplagrin immobilised on CM5, synthetic collagen-derived peptides or collagen type I flowed for 90 s at 20 µL/min; both purified
# [3] = molecular target: T1, Simplagrin (Simulium platelet aggregation inhibitor), recombinant (Simulium nigrimanum); assay: SEC-MALS; SEC-MALS-QELS-HPLC, TSK gel G3000PWxl, phosphate buffer pH 7.4 with 308 mM NaCl and 0.5 M urea, 0.5 mL/min; both purified
# [4] = molecular target: Soluble human collagen type III (human) (UniProt P02461); assay: SPR; collagen type III immobilised; Simplagrin alone or preincubated with saturating concentrations of RGQOGVMGF peptide in HBS-P; both purified
# [5] = molecular target: von Willebrand factor (vWF), factor VIII free (UniProt P04275); assay: SPR; in solution competition: vWF immobilised on CM5; collagen type I (0.1 µM) or RGQOGVMGF peptide (1 µM) with or without Simplagrin (0.2 µM); both purified
# [6] = molecular target: Soluble human collagen type I (human) (UniProt P02452); assay: ELISA; solid phase: collagens (25 µg/mL in PBS pH 7.4) coated overnight at 4°C, Simplagrin 0-3 µM in PBS-T for two hours, detected with anti-Simplagrin antibodies; both purified
# [7] = molecular target: Soluble human collagen type III (human) (UniProt P02461); assay: as above
# [8] = molecular target: Soluble human collagen type I (human) (UniProt P02452); assay: ELISA; solid phase: 96-well plate coated with collagen type I or RGQOGVMGF peptide, Simplagrin at different concentrations, detected with rabbit anti-Simplagrin antibodies; both purified
molecule,measurement,setting,value
Vitronectin (from UniProt P04004 20-478),binding,[1],no binding
"von Willebrand factor (vWF), factor VIII free (from UniProt P04275 764-2813)",binding,[1],no binding
Soluble human collagen type I (from UniProt P02452 162-1218; P08123 80-1119),binding,[2],binds
same,binding,[1],binds
Soluble human collagen type III (from UniProt P02461 154-1221),binding,[1],binds
"Simplagrin (Simulium platelet aggregation inhibitor), recombinant (natural protein, Simulium nigrimanum, UniProt D1FQ14 21-286, looked up, Simplagrin (cluster Sim-50), salivary gland protein of Simulium nigrimanum; precursor of 286 aa with a predicted signal peptide of 20 aa; the construct holds the mature protein and a 6X-His tag before the stop codon; Synthetic codon optimised gene in the VR2001 TOPO vector; also called Sim-50; recombinant Simplagrin; source: FreeStyle293 F (HEK293) cells, transfected, secreted; purified (Ni2+ …)) SPIPDEESEETEDAEQEEDAEEEEHAEEEAQEDGDQTQDTDQESDDGQEETANQGSDEQQEEDGSHGTDETDDEAAGSRTEDVESGGDEQNDGEENGSQENGEEVTGGEDDSHGAQDSEGGEEDAAAQEAGGKKSKGKGAKGGQGSNRAGSSSGGEESAAHTYQEVMRILNGIKINAKEPLKSRLVNGLQYLKVDTINRVENIQKFSRIEHCFGNLDHIVQLYAGDAVERNDYCKGTCIDMVSNEFRGQMEELTSRLYPCLQGGYY",binding,[3],no binding
same,binding,[4],binds
same,binding,[5],no binding (tested: 0.2 µM)
same,binding,[6],binds
same,binding,[7],binds
same,binding,[8],binds
